The results are deposited in PubChem (AID1159506; NCATS, 2015).

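Genome-wide siRNA knockdown in TC32 Ewing sarcoma cells, comparing luciferase light from an NR0B1-promoter reporter with a CMV-promoter reporter 48 hours after transfection.
Each siRNA was applied at 20 nM.
A z-score of the log NR0B1-over-CMV signal, less the median of siRNAs with the same seed; more negative means a stronger specific loss of the NR0B1 reporter.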

This is part of the screen; most of the strongest results are not listed here.
Sequences are the guide (antisense) strand, without overhang.

| strand | target gene | seed-corrected z-score |
|---|---|---|
| `UCAGUGGCACCAAAACAGC` | BANF2 | -0.9537 |
| `UAUCGCAUCGCUUCUGCAG` | NAP1L5 | -0.007919 |
| `UCCUUGCUCACACUGAAGC` | E4F1 | -0.1425 |
| `UGCUGCACCAAUAAGAGAC` | PRELID3BP10 | -0.1577 |
| `AGGUUGACCAUCACAGUCC` | IL17A | -0.9409 |
| `UAUCCAGUAACUCAUUUGC` | ALS2CR11 | -1.771 |
| `UAUGGUUGGACUUCGUGCU` | CFAP126 | 0.9901 |
| `AGAGGUUGGAGAGGUGAGC` | PRR23A | -0.8518 |
| `AUAGAGAUUGUAGAUGUUG` | CTSA | 0.09767 |
| `UGGCGAUUCAGUCCUUUUC` | DLX4 | -0.5806 |
| `UAGAGAAUAGGCCUGUUCG` | NDUFS2 | 0.3644 |
| `UUUGCAUCAUGGGUCCUUC` | EVPL | 1.678 |
| `UACUCUAUGAGGAUUCACC` | PUS10 | -0.4401 |
| `UCCUUUGUUAAGUAGCCUU` | S100A10 | -0.5464 |
| `UCACGGCUUUCUGUAAAGC` | STRADB | -1.277 |
| `UGUGCAACAUCUCCUGUUC` | ZBTB32 | 0.5951 |
| `UUCGCAUCCAGUUCCUUGG` | EPHA10 | 0.1298 |
| `UUGUUCAUCAUGGAGGUAC` | LOC645513 | 0.2588 |
| `UUACUGUUAUCGCUCCUGG` | DAZAP1 | -0.6133 |
| `UCAACAGUAACAAUAGGGC` | SMAD4 | -0.9529 |
| `UAUUCGGUCCAUUAUGACC` | EPC2 | 0.3882 |
| `UGUGUUGCAGGACCUGAGG` | UNC93B2 | 0.01322 |
| `UCAGGGACAUAGUAGAUUA` | ALKBH6 | -0.6607 |
| `UACGUGUCAUAGUUCCUGG` | RHBDD1 | 0.0533 |
| `UCUCUUAUUCCUUUUGGGC` | FAM104B | 0.8338 |
| `UUAAAUCACAACUGCUUUC` | AP1AR | 0.03228 |
| `UUCAUUGGGACGACUUUGU` | MYT1L-AS1 | 0.4041 |
| `UAUUGUCGUAGCAUCGCUG` | JADE1 | -0.7188 |
| `AAGGUAACAUAUAUUGUCC` | FAM111A | 1.145 |
| `UUUGCAAAGAGCUAGUAAG` | MMRN2 | 0.09038 |
| `UGAUGAUACAGGAUAACUC` | ARFGEF1 | -0.1107 |
| `AAAUGGGCCCGCGAUGUCU` | LOC285191 | 0.1405 |
| `UUUCUUUGCACAGCAAUUG` | FRAT2 | 0.1314 |
| `UAUUCGACUCGGUACUUUG` | SENP7 | 0.3436 |
| `UGACUGAUGAAGGCGAUUC` | ARID4B | 0.2788 |
| `UUUCCUUAGAUGUAUUUUC` | C4orf36 | -0.7451 |
| `AGGGUAAUCAGCUUGGACC` | UNC13A | -0.3683 |
| `UAAACUGGAACUGAUAUAC` | RANBP3 | -0.1703 |
| `AUCUGAAUAAGUUCAUCCC` | C1QTNF9 | -0.6911 |
| `UUUACAUCAAGGACAAUCC` | SOWAHB | 0.4002 |